Measured values as given in US20230223113A1, “Methods and Systems for Rapid Antimicrobial Susceptibility Tests” (The Regents of the University of California, priority 2020, published 2023).
For at least one compound, name, drawing or mass did not settle the structure.

Key:
[1] = tested on: Pseudomonas aeruginosa (strain PA14 wild type); test: Dose-response growth curves (OD600 after 24 h) to identify the minimum inhibitory concentration; type: cell-based
Protocol: (§1) Optical density at 600 nm (OD600) to identify the minimum inhibitory concentration (MIC) of A) carbenicillin, B) rifampicin, and C) gentamicin for Pseudomonas aeruginosa, and D) gentamicin for Escherichia coli in accordance with an embodiment is illustrated in FIGS. 5A-5D. The P. aeruginosa strain, PA14 used in some embodiments has differing susceptibility to carbenicillin [+C] and rifampicin [+R]. Several embodiments refer to the antibiotic treatments that are performed with 50 μg/mL and 400 μg/mL of carbenicillin and rifampicin, respectively as the AST dataset. These concentrations are just below the respective minimum inhibitory concentrations (MICs) for these antibiotics in P. aeruginosa, as shown in FIGS. 5A and 5B. […]
(§2) Pseudomonas aeruginosa (strain PA14 wild type) and Escherichia coli (strain MC4100, K-12, F-araD139Δ(argF-lac)U169 rspL150 relA1 fIbB5301 fruA25 deoC1 ptsF25) cultures were obtained by first streaking from a frozen culture stock onto LB Lennox agar (IBI Scientific) plates and incubated at 37° C. for 24 h. […] The 18 h cultures were centrifuged at 5000 rpm for 5 minutes, then resuspended in fresh LB to reach an optical density at 600 nm (OD600) of 0.50 as measured by a BioChrom Colourwave CO7500 Colorimeter. […]

[2] = tested on: P. aeruginosa cell culture; test: OD600 of cell culture over time of antibiotic exposure after adjustment to OD 0.5; type: cell-based, Pseudomonas aeruginosa; settings: 400 μg/mL rifampicin, about 2 hour exposure
Protocol: as §1, §2

CO[C@H]1/C=C/O[C@@]2(C)Oc3c(C)c(O)c4c(O)c(c(/C=N/N5CCN(C)CC5)c(O)c4c3C2=O)NC(=O)/C(C)=C\C=C\[C@H](C)[C@H](O)[C@@H](C)[C@@H](O)[C@@H](C)[C@H](OC(C)=O)[C@@H]1C [rifampicin]
resistance of P. aeruginosa (from growth curves, FIGS. 5A-5D) [1]: evident resistance | growth inhibition over the time of exposure (OD600) [2]: does not exhibit any significant growth inhibition
